Assay results as given in the supplement of paper PMC10849652.
Some of the results follow.

Chains of the proteins cited; added tags and fusions are not shown. Lines headed by an entry give the natural chain unless they say otherwise; changes in a name come on top.
UniProt Q02218: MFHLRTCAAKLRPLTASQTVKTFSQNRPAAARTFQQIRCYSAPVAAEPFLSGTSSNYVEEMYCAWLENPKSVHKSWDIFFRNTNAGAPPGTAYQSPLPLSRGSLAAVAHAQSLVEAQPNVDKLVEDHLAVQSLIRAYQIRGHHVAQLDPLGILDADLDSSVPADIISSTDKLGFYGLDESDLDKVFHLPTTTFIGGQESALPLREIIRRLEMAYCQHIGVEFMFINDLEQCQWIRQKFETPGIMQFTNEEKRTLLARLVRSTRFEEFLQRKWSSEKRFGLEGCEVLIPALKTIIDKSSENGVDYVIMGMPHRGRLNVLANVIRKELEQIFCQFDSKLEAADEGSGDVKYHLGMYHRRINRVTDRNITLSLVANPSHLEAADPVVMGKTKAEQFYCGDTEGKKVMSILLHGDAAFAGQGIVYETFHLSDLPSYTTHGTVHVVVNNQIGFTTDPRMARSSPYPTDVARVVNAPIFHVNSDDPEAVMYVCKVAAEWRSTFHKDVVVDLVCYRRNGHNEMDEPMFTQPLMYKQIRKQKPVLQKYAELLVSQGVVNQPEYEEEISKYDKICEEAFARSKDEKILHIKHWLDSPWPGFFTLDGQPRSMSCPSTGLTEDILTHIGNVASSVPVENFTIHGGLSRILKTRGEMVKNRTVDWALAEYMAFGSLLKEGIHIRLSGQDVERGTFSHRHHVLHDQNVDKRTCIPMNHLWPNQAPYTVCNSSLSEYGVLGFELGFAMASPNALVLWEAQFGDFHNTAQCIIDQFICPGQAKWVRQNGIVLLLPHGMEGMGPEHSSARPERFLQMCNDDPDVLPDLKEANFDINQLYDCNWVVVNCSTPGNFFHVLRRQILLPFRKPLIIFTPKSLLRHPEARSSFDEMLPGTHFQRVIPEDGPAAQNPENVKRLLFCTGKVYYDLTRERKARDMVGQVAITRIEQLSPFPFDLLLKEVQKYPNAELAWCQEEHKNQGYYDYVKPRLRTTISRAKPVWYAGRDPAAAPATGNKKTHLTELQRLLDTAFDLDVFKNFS
UniProt Q9BRP4: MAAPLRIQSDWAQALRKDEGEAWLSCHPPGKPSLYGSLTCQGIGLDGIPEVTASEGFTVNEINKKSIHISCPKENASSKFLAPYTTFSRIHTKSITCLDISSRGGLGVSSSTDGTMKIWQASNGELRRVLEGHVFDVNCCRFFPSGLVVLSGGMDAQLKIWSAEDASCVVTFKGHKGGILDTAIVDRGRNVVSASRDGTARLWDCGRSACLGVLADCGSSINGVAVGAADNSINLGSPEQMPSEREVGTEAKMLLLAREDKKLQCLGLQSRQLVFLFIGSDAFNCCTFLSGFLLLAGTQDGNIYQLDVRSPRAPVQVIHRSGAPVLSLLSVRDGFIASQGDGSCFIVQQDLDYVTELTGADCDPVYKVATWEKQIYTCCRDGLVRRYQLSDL
UniProt O75459: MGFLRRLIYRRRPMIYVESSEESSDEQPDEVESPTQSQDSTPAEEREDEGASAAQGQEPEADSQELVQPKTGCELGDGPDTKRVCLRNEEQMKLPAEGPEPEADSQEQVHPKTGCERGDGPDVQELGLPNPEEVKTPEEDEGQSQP
UniProt Q9H4L5: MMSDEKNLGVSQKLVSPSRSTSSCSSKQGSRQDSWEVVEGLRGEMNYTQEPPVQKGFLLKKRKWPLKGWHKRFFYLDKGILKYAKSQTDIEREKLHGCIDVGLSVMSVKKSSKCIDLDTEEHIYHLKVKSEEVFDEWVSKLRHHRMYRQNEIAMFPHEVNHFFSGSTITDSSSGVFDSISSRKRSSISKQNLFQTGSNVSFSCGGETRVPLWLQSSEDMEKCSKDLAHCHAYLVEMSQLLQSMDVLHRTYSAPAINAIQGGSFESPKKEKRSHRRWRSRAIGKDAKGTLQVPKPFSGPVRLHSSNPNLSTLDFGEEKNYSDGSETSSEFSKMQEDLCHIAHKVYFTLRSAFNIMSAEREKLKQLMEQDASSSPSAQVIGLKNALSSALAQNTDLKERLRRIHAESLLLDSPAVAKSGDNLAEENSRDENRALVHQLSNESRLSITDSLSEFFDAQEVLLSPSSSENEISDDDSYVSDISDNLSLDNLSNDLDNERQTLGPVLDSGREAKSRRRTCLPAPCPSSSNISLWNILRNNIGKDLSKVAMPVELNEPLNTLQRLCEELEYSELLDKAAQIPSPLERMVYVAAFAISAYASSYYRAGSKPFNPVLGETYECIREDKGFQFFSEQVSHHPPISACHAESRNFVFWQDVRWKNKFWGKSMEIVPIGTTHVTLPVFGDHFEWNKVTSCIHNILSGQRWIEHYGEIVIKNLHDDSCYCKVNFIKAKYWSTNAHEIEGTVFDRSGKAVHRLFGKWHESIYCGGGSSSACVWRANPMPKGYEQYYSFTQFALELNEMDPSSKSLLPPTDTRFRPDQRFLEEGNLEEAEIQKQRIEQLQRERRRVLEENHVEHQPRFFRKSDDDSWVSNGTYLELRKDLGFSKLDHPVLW
UniProt Q01968: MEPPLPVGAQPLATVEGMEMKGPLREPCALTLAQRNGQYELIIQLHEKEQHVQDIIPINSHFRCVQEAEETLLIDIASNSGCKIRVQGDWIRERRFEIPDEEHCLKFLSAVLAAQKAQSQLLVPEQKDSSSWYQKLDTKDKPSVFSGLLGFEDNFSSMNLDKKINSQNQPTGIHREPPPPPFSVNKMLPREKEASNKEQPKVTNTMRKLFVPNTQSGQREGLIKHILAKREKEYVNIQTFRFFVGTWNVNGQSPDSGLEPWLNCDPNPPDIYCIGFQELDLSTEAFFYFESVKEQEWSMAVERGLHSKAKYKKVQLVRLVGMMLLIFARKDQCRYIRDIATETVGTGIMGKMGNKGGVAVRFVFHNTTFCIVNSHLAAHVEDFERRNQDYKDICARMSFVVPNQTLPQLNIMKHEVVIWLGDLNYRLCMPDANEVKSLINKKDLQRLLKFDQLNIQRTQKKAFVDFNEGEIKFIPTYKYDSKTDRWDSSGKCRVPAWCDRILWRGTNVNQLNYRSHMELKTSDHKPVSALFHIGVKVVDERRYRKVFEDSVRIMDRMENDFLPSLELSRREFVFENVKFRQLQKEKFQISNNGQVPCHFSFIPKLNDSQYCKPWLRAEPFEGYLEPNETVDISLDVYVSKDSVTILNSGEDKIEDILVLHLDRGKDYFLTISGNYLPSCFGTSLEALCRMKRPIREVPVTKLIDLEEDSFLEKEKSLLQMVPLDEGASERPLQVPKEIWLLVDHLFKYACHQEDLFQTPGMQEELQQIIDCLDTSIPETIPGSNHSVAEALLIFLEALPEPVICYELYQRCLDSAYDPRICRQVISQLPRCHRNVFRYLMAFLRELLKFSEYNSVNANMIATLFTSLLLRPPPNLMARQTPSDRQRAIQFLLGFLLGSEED
UniProt P13674: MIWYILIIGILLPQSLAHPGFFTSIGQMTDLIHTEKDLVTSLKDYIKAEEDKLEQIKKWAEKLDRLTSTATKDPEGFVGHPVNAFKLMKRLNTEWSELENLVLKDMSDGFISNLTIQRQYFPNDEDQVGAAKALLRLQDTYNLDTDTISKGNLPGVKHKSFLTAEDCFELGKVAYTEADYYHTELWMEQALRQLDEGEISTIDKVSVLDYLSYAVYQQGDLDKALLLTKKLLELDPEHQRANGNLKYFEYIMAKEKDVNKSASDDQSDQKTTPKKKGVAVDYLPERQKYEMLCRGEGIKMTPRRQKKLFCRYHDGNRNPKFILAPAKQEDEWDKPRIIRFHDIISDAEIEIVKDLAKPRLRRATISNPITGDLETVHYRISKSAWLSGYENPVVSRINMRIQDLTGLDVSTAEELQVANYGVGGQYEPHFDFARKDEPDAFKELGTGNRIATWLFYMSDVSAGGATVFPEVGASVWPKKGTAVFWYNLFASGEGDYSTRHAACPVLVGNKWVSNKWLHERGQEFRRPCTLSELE
UniProt P35658: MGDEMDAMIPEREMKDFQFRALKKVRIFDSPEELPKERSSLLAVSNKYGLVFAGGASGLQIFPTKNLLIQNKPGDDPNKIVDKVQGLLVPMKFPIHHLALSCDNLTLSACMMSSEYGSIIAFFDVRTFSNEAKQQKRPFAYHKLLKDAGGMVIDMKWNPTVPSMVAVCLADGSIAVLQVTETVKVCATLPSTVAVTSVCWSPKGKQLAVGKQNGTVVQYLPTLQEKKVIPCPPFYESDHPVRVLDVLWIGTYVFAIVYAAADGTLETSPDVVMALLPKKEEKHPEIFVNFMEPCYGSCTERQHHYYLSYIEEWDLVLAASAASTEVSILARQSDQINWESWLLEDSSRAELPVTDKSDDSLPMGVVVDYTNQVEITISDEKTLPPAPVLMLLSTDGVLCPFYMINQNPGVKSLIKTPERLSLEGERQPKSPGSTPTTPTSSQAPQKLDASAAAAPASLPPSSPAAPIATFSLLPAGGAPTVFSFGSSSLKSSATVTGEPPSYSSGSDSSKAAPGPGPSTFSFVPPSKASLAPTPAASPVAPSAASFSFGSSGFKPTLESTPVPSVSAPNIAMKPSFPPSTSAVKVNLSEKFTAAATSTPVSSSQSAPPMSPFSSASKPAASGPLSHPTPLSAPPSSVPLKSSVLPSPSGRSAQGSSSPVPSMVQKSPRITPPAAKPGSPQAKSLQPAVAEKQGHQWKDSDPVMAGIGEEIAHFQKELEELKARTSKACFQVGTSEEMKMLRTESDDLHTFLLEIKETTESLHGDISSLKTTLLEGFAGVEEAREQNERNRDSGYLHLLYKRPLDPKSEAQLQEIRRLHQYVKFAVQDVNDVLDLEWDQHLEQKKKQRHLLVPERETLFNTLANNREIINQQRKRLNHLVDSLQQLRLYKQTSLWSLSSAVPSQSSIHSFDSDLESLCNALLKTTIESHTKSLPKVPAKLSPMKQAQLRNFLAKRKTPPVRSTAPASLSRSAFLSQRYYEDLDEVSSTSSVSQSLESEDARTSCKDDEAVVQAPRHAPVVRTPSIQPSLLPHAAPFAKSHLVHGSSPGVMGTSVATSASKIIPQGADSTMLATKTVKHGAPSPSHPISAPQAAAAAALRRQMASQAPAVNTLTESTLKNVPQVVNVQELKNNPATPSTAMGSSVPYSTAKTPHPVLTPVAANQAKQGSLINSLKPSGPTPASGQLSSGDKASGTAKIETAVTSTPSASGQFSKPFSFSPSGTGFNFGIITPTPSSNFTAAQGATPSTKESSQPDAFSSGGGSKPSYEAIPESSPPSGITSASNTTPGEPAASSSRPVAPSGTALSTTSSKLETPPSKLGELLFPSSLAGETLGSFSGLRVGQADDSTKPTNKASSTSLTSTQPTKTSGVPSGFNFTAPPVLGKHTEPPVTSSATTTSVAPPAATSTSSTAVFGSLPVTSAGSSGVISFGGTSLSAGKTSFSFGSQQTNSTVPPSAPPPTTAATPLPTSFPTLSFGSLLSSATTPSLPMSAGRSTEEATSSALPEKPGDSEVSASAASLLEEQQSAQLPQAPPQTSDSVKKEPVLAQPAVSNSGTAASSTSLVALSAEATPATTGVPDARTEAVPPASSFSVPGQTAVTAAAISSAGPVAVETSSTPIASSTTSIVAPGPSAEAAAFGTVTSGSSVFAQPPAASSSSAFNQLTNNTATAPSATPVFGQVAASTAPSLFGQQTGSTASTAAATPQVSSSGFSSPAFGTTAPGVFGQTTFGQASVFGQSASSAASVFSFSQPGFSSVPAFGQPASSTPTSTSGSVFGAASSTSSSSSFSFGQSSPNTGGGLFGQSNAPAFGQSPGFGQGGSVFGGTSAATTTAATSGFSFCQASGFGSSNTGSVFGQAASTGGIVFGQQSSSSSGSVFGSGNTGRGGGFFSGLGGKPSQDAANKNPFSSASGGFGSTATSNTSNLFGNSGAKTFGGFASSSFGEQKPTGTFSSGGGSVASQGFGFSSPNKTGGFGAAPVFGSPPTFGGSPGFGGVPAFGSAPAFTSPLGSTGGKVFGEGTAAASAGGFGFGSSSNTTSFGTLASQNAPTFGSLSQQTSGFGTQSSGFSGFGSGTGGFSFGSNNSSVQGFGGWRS
UniProt P04181: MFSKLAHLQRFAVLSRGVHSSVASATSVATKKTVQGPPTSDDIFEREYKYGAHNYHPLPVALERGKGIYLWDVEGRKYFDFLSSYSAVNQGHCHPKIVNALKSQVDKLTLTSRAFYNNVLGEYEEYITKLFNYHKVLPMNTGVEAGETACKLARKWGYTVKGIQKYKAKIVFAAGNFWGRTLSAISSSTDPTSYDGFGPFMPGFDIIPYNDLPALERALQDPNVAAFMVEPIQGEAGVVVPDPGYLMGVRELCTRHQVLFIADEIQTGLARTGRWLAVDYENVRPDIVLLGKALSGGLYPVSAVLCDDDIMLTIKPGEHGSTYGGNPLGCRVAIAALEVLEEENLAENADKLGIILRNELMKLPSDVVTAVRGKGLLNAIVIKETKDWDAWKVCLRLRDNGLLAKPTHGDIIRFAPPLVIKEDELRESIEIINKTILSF

Compound: CC1=CC=C(C=C1)SC2=C3C=C(SC3=CN=C2)C(=O)N
Experiment: log2 fold change, soluble protein after heating vs DMSO (PISA); higher = thermal stabilisation; K562 lysate, 10 uM; active = over 0.2 and 3.5 SD of the protein, either way, in both replicates (recomputed)
Summary of the method: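 K562 pellets were dounce-homogenised in PBS pH 7.4 with 1 mM MgCl2, and the crude extract at 1 mg/mL protein was treated with 10 μM compound for 30 min. Aliquots were heated for 3 min across 48°C-58°C, pooled, and brought to 0.5% NP-40 at 4°C; soluble protein was the supernatant after 21,000xg for 90 min. Soluble protein was quantified by TMTpro 16plex LC-MS/MS with channel sums equalised, and reported as log2 fold change in thermal stability against DMSO controls, with values from duplicates.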

Row | Target | log2 fold change
1 | OBI1 (UniProt Q5W0B1) | inactive: 0.005
2 | OBSL1 (UniProt O75147) | inactive: -0.135
3 | OGDH (UniProt Q02218) | inactive: 0.013
4 | PAAF1 (UniProt Q9BRP4) | inactive: 0
5 | OS9 (UniProt Q13438) | inactive: -0.01
6 | PARK7 (UniProt Q99497) | inactive: -0.021
7 | PAGE1 (UniProt O75459) | inactive: -0.055
8 | OSBPL3 isoform 2 (UniProt Q9H4L5) | inactive: -0.016
9 | PAICS (UniProt E9PBS1) | inactive: -0.033
10 | OSTF1 (UniProt Q92882) | inactive: 0
11 | PAIP1 (UniProt Q9H074) | inactive: -0.021
12 | OGFOD1 (UniProt Q8N543) | inactive: -0.003
13 | P4HB (UniProt P07237) | inactive: 0.004
14 | OGFR (UniProt Q9NZT2) | inactive: 0.002
15 | OTUD4 (UniProt Q01804) | inactive: -0.01
16 | PACC1 (UniProt Q9H813) | inactive: -0.086
17 | NUP98 (UniProt P52948) | inactive: -0.017

Row | Target | log2 fold change
18 | OCRL (UniProt Q01968) | inactive: 0.033
19 | OXR1 (UniProt Q8N573) | inactive: -0.031
20 | PARG (UniProt Q86W56) | inactive: 0.005
21 | PARD3 (UniProt Q8TEW0) | inactive: -0.068
22 | OSBPL6 isoform 5 (UniProt Q9BZF3) | inactive: 0.01
23 | OLA1 (UniProt Q9NTK5) | inactive: 0.014
24 | P4HA1 (UniProt P13674) | inactive: 0.005
25 | PANX1 (UniProt Q96RD7) | inactive: -0.033
26 | OPLAH (UniProt O14841) | inactive: 0.011
27 | OIP5 (UniProt O43482) | inactive: -0.002
28 | OXCT1 (UniProt P55809) | inactive: -0.005
29 | OSBPL11 (UniProt Q9BXB4) | inactive: -0.101
30 | NUP214 (UniProt P35658) | inactive: -0.011
31 | PARL (UniProt Q9H300) | inactive: 0.004
32 | OAT (UniProt P04181) | inactive: -0.009
33 | OGA (UniProt O60502) | inactive: -0.008
34 | OCIAD1 (UniProt Q9NX40) | inactive: -0.009

Given as comma-separated lines: part of the list above.
Row,Target,log2 fold change
30,NUP214 (UniProt P35658),inactive: -0.011
33,OGA (UniProt O60502),inactive: -0.008
